At least one structure is not confirmed: it was looked up by name or label, or the drawing left a doubt.
Tested on: primary osteoblasts
Assay: Alkaline phosphatase (ALP) activity of osteoblasts
Assay type: cell-based, Wistar rats
Settings: day 15 of treatment; 10^-9 M 1,25(OH)2D3, 1 μM OLP, 1 μM HTy; vs negative control (C-); FIGS. 3 to 6
Procedure: Primary osteoblasts were isolated from the calvaria of newborn Wistar rats by enzymatic digestion as described by Declercq et al. in 2004. During all experiments, cells were maintained in α-minimal essential medium with 10% heat-inactivated fetal bovine serum and 1% penicillin/streptomycin under conditions of 5% CO2 and 37° C. Cells were seeded on Coll-1-coated 96-well plates at a density of 3500 cells/well or in 24-well plates at a density of 3×10^4 cells/well and cultured for 2 days in o-MEM to reach confluence. Cells were then exposed to different conditions: minimal medium (C−), minimal medium containing 50 μg/ml ascorbic acid, 5 mM ß-glycerophosphate (C+; optimized medium), and minimal medium supplemented with 1 μM Oleuropein ([…]) or/and 10^−9 M 1,25 dihydroxyvitamin D3 (1,25(OH)2D3). OLP and HTy were dissolved in dimethylsulfoxide (DMSO) and 1,25(OH)2D3 was dissolved in ethanol. The final concentrations of DMSO and ethanol in the medium were 0.1% each. The medium was changed every 2 days.
Enzymatic activity of Alkaline Phosphatase (ALP) was measured kinetically on Treatment Days 0, 5, 9, 12 and 15. Osteoblasts were rinsed twice with PBS before being frozen on dry ice. […] Absorbance was measured at 405 nm and 30° C., and every 2 min 30 s for 30 min using a VarioSklan Flash microplate reader. ALP activity was expressed as micromoles of p-NPP per hour per milligram of protein. […]

Row | SMILES | AP (ALP) activity / osteoblast activity
1 | OCCc1ccc(O)c(O)c1 [HT, Hydroxytyrosol] | small increase
2 | C/C=C1/[C@H](O[C@@H]2O[C@H](CO)[C@@H](O)[C@H](O)[C@H]2O)OC=C(C(=O)OC)[C@H]1CC(=O)OCCc1ccc(O)c(O)c1 [OLP, Oleuropein] | small increase

Source: patent US11166965B2, “Compositions for use in stimulating bone growth” (Société des Produits Nestlé S.A., priority 2013, dated 2021)
